Data as given in the supplement of paper PMC10470496.
Where a name gives a salt, the structure may show the parent alone. The list shows a part of the results. Repeats are few or missing, and single values can be far off.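 The strains were three CDC resistance-bank clinical C. auris isolates from clades III, IV and I, cultured in RPMI-1640 at 35°C. Growth was background-corrected OD600 versus vehicle-only wells on the same plate. A hit needed >50% inhibition in two or more strains plus a plate-corrected B-score exceeding 0.1.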

Columns and labels:
Assay in all cases: growth relative to vehicle control (OD600 ratio) (fraction); higher = less inhibition
Details in all cases: 24 h
[1] = test system: C. auris AR-384
[2] = test system: C. auris AR-386
[3] = test system: C. auris AR-387

Row | Structure (SMILES) | growth ([1]; 1 µM) | growth ([1]; 10 µM) | growth ([2]; 1 µM) | growth ([2]; 10 µM) | growth ([3]; 1 µM) | growth ([3]; 10 µM)
1 | Cc1cc2c(cc1CC(=O)c1sccc1S(=O)(=O)Nc1onc(C)c1Cl)OCO2 [Sitaxentan sodium] | 0.81 | 0.69 | 0.75 | 0.93 | 0.72 | 0.72
2 | C[C@H](CS)C(=O)N1CCC[C@H]1C(=O)O [Captopril] | 1.29 | 1.06 | 1.16 | 0.7 | 1.12 | 0.9
3 | CN1CCC(=C2c3ccccc3CCn3c(C=O)cnc32)CC1 [Alcaftadine] | 0.9 | 0.8 | 0.88 | 0.61 | 0.68 | 0.69
4 | COC(=O)[C@@H]1CC2=CC(=O)CC[C@]2(C)[C@@]23O[C@@H]2C[C@@]2(C)[C@@H](CC[C@@]24CCC(=O)O4)[C@H]13 [Eplerenone] | 0.97 | 1.21 | 1.17 | 1.53 | 1.12 | 1.34
5 | COC(=O)/C=C/C(=O)OC [Dimethyl Fumarate] | 0.88 | 0.88 | 0.9 | 0.57 | 0.68 | 0.68
6 | COC[C@H]1C[C@@H](c2nc(-c3ccc4c(c3)COc3cc5c(ccc6nc([C@@H]7CC[C@H](C)N7C(=O)[C@@H](NC(=O)OC)C(C)C)[nH]c65)cc3-4)c[nH]2)N(C(=O)[C@H](NC(=O)OC)c2ccccc2)C1 [Velpatasvir] | 0.94 | 1.12 | 0.74 | 0.82 | 0.74 | 0.8
7 | CC(=O)NC(CC(C)C)C(=O)O (stereo not given) [Acetylleucine] | 0.78 | 0.71 | 0.85 | 1.06 | 0.75 | 0.89
8 | NCc1ccc(S(N)(=O)=O)cc1 [Mafenide Acetate] | 1.26 | 1.56 | 1.34 | 1.26 | 1.35 | 1.2
9 | CC(C)c1cc(-c2n[nH]c(=O)n2-c2ccc3c(ccn3C)c2)c(O)cc1O [Ganetespib (STA-9090)] | 1.01 | 1.18 | 1.24 | 1.45 | 1.09 | 1.28
10 | COc1ncc(-c2ccc3nccc(-c4ccnnc4)c3c2)cc1NS(=O)(=O)c1ccc(F)cc1F | 0.97 | 0.81 | 0.98 | 1.13 | 0.99 | 1.05
11 | C[C@]1(Cn2ccnn2)[C@H](C(=O)O)N2C(=O)C[C@H]2S1(=O)=O [Tazobactam] | 1.04 | 0.89 | 0.91 | 0.66 | 0.73 | 0.69
12 | CC(C)(C)NC[C@H](O)COc1nsnc1N1CCOCC1 [Timolol Maleate] | 0.89 | 1.06 | 1.16 | 0.92 | 0.95 | 1
13 | CCN(CC)Cc1cc(Nc2ccnc3cc(Cl)ccc23)ccc1O [Amodiaquine dihydrochloride dihydrate] | 1.08 | 0.83 | 0.79 | 0.85 | 0.78 | 1.01
14 | C#C[C@]1(O)CC[C@H]2[C@@H]3CCc4cc(O)ccc4[C@H]3CC[C@@]21C [Ethinyl Estradiol] | 0.75 | 1.07 | 1.11 | 0.78 | 0.72 | 0.94
15 | Cc1c(OCC(F)(F)F)ccnc1C[S+]([O-])c1nc2ccccc2[nH]1 (stereo not given) [Lansoprazole] | 1.2 | 1.35 | 1.24 | 1.05 | 0.85 | 0.75
16 | Cc1[nH]c(=O)c(C#N)cc1-c1ccncc1 [Milrinone] | 1.05 | 0.81 | 0.71 | 1.08 | 1.03 | 0.96
17 | CCCCCCCCCC(=O)N[C@H]1[C@H](Oc2c3cc4cc2Oc2ccc(cc2Cl)[C@@H](O[C@@H]2O[C@H](CO)[C@@H](O)[C@H](O)[C@H]2NC(C)=O)[C@@H]2NC(=O)[C@H](NC(=O)[C@@H]4NC(=O)[C@H]4NC(=O)[C@@H](Cc5ccc(c(Cl)c5)O3)NC(=O)[C@H](N)c3ccc(O)c(c3)Oc3cc(O)cc4c3)c3ccc(O)c(c3)-c3c(OC4O[C@H](CO)[C@@H](O)[C@H](O)[C@@H]4O)cc(O)cc3[C@@H](C(=O)O)NC2=O)O[C@H](CO)[C@@H](O)[C@@H]1O (stereo not given in full) [Teicoplanin] | 0.85 | 0.44 | 0.89 | 0.92 | 0.83 | 0.83
18 | CCOC(=O)N[C@@H]1CC[C@@H]2[C@@H](C1)C[C@H]1C(=O)O[C@H](C)[C@H]1[C@H]2/C=C/c1ccc(-c2cccc(F)c2)cn1 [Vorapaxar] | 1.01 | 1.09 | 0.82 | 0.81 | 0.79 | 0.98
19 | OC(Cn1cncn1)(Cn1cncn1)c1ccc(F)cc1F [Fluconazole] | 1.03 | 1.2 | 1.14 | 0.83 | 0.61 | 0.27
20 | Clc1ccc(COC(Cn2ccnc2)c2ccc(Cl)cc2Cl)c(Cl)c1 (stereo not given) [Miconazole] | 0.48 | 0.23 | 0.66 | 0.67 | 0.06 | 0.6
21 | N#C/C(=C1/SC[C@@H](c2ccc(Cl)cc2Cl)S1)n1ccnc1 [Luliconazole] | 0.85 | 0.68 | 1.23 | 0.68 | 0.65 | 0.14
22 | O=c1oc2cc(O)ccc2s1 [Tioxolone] | 1.38 | 0.79 | 0.89 | 0.98 | 0.95 | 1.03
23 | C[C@]12CC[C@@H]3c4ccc(O)cc4C[C@@H](CCCCCCCCC[S+]([O-])CCCC(F)(F)C(F)(F)F)[C@H]3[C@@H]1CC[C@@H]2O (stereo not given in full) [Fulvestrant] | 1.09 | 0.93 | 0.6 | 0.92 | 1.03 | 0.91

Quoted from the listing.
Value for CC(C)c1cc(-c2n[nH]c(=O)n2-c2ccc3c(ccn3C)c2)c(O)cc1O [Ganetespib (STA-9090)] under growth ([1]; 10 µM): 1.18
Value for CN1CCC(=C2c3ccccc3CCn3c(C=O)cnc32)CC1 [Alcaftadine] under growth ([3]; 10 µM): 0.69
Value for CCCCCCCCCC(=O)N[C@H]1[C@H](Oc2c3cc4cc2Oc2ccc(cc2Cl)[C@@H](O[C@@H]2O[C@H](CO)[C@@H](O)[C@H](O)[C@H]2NC(C)=O)[C@@H]2NC(=O)[C@H](NC(=O)[C@@H]4NC(=O)[C@H]4NC(=O)[C@@H](Cc5ccc(c(Cl)c5)O3)NC(=O)[C@H](N)c3ccc(O)c(c3)Oc3cc(O)cc4c3)c3ccc(O)c(c3)-c3c(OC4O[C@H](CO)[C@@H](O)[C@H](O)[C@@H]4O)cc(O)cc3[C@@H](C(=O)O)NC2=O)O[C@H](CO)[C@@H](O)[C@@H]1O (stereo not given in full) [Teicoplanin] under growth ([1]; 10 µM): 0.44

Remaining list, next part

Row | Structure (SMILES) | growth ([1]; 1 µM) | growth ([1]; 10 µM) | growth ([2]; 1 µM) | growth ([2]; 10 µM) | growth ([3]; 1 µM) | growth ([3]; 10 µM)
24 | COC(=O)[C@]12CCC(C)(C)C[C@H]1[C@H]1C(=O)C=C3[C@@]4(C)C=C(C#N)C(=O)C(C)(C)[C@@H]4CC[C@@]3(C)[C@]1(C)CC2 [Bardoxolone Methyl] | 1.3 | 1.24 | 1.27 | 0.93 | 1.04 | 1.11
25 | COc1ccc(CC2c3cc(OC)c(OC)cc3CC[N+]2(C)CCC(=O)OCCCCCOC(=O)CC[N+]2(C)CCc3cc(OC)c(OC)cc3C2Cc2ccc(OC)c(OC)c2)cc1OC (stereo not given) [Atracurium Besylate] | 0.68 | 0.62 | 0.94 | 0.85 | 0.99 | 0.83
26 | COc1ccc(CN2CCN(C(c3ccc(F)cc3)c3ccc(F)cc3)CC2)c(OC)c1OC [Lomerizine 2HCl] | 1 | 0.95 | 1.15 | 0.66 | 0.91 | 0.65
27 | CCCCC(=O)N(Cc1ccc(-c2ccccc2-c2nn[nH]n2)cc1)C(C(=O)O)C(C)C.CCOC(=O)C(C)CC(Cc1ccc(-c2ccccc2)cc1)NC(=O)CCC(=O)O (stereo not given) [Sacubitril/valsartan (LCZ696)] | 0.85 | 0.91 | 0.81 | 0.83 | 0.96 | 0.97
28 | CCCC(=O)Nc1ccc(OCC(O)CNC(C)C)c(C(C)=O)c1 (stereo not given) [Acebutolol HCl] | 0.78 | 0.79 | 0.57 | 0.71 | 0.74 | 0.78
29 | CC(N)C12CC3CC(CC(C3)C1)C2 (stereo not given) [Rimantadine] | 0.86 | 1.07 | 0.85 | 0.72 | 0.71 | 0.66
30 | CCOc1cc2ncc(C#N)c(Nc3ccc(F)c(Cl)c3)c2cc1NC(=O)/C=C/CN(C)C [Pelitinib (EKB-569)] | 0.79 | 1.09 | 1.19 | 1.1 | 1.01 | 1.03
31 | O=c1[nH]cnc2c1ncn2[C@@H]1O[C@H](CO)[C@@H](O)[C@H]1O [Inosine] | 0.95 | 0.9 | 1.12 | 1.16 | 1.23 | 1.29
32 | O=C(CCCN1CC=C(n2c(=O)[nH]c3ccccc32)CC1)c1ccc(F)cc1 [Droperidol] | 0.82 | 0.82 | 1.08 | 0.83 | 0.82 | 0.69
33 | CO/N=C(\C(=O)N[C@@H]1C(=O)N2C(C(=O)[O-])=C(C[n+]3cccc4c3CCC4)CS[C@H]12)c1csc(N)n1 [Cefpirome sulfate] | 0.79 | 1.17 | 1.08 | 1.02 | 0.93 | 0.89
34 | C=CC(=O)N1CCC(Oc2cc3c(Nc4ccc(Cl)c(Cl)c4F)ncnc3cc2OC)CC1 [Poziotinib (HM781-36B)] | 1.03 | 1.68 | 0.7 | 1.32 | 0.93 | 1.15
35 | CC(C)(CO)C(O)C(=O)NCCC(=O)O [Calcium D-Panthotenate] | 1.06 | 1.03 | 1.17 | 1.05 | 1.01 | 1.07
36 | Cc1cc(C)c2c(c1)[C@@H](N(Cc1cc(C(F)(F)F)cc(C(F)(F)F)c1)c1nnn(C)n1)CCCN2C[C@H]1CC[C@H](C(=O)O)CC1 | 0.81 | 0.92 | 0.69 | 0.59 | 0.58 | 0.79
37 | C=CC1=C(C(=O)O)N2C(=O)[C@@H](NC(=O)/C(=N\O)c3csc(N)n3)[C@H]2SC1 [Cefdinir] | 0.96 | 1.11 | 0.96 | 1.11 | 1.2 | 1.11
38 | COc1ccc(CCN(C)CCCC(C#N)(c2ccc(OC)c(OC)c2)C(C)C)cc1OC (stereo not given) [Verapamil HCl] | 0.93 | 0.8 | 0.79 | 0.98 | 0.9 | 0.92
39 | NCCc1c[nH]cn1 [Histamine Phosphate] | 0.6 | 0.57 | 0.91 | 0.68 | 1.08 | 0.72
40 | Cc1cc(N2CCN([C@@H]3CN[C@H](C(=O)N4CCSC4)C3)CC2)n(-c2ccccc2)n1 [Teneligliptin hydrobromide] | 1.21 | 0.97 | 1.04 | 0.99 | 0.93 | 1
41 | Nc1nc(F)nc2c1ncn2[C@@H]1O[C@H](CO)[C@@H](O)[C@@H]1O [Fludarabine] | 0.52 | 0.42 | 0.62 | 0.62 | 0.7 | 0.68
42 | O=C(O)CCNC(=O)c1ccc(/N=N/c2ccc(O)c(C(=O)O)c2)cc1 [Balsalazide disodium] | 1.02 | 0.91 | 0.96 | 1.14 | 1.23 | 0.92
43 | Cc1onc(-c2ccccc2)c1-c1ccc(S(N)(=O)=O)cc1 [Valdecoxib] | 0.88 | 0.76 | 1.04 | 1.15 | 0.86 | 0.77
44 | C=C1/C(=C\C=C2/CCC[C@]3(C)[C@@H]([C@H](C)CCCC(C)C)CC[C@@H]23)C[C@@H](O)C[C@@H]1O [Alfacalcidol] | 1.28 | 0.81 | 0.71 | 0.88 | 0.79 | 1.15
45 | C[C@H]1[C@H](OC(=O)CCC(=O)O)O[C@@H]2O[C@@]3(C)CC[C@H]4[C@H](C)CC[C@@H]1[C@@]24OO3 [Artesunate] | 1.03 | 0.61 | 1.04 | 0.8 | 0.77 | 0.72
